Measurements reported in article PMC7819943, “Rice protein-binding microarrays: a tool to detect cis-acting elements near promoter regions in rice”.
This is one part of the list.

Molecular target: T1, OsSMF1 (Oryza sativa, UniProt Q6ZLB0 1-436)
T1 sequence: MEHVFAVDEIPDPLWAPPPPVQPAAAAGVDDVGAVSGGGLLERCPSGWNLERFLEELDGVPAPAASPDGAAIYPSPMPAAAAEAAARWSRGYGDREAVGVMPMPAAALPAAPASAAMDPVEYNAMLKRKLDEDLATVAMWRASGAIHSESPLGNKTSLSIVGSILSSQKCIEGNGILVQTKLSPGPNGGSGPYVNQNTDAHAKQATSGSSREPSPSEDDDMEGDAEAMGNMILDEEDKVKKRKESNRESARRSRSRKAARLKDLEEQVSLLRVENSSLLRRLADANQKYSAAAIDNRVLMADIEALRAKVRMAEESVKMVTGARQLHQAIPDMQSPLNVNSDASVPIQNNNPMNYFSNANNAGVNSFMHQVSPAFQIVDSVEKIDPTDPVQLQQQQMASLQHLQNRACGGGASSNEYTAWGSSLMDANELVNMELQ
Assay: protein-binding microarray (RPBM); PBS, 2% BSA, 51.3 ng/ul salmon testes DNA, 50 uM zinc acetate, 200 nM TF, 25 C, 1 h; high values mean tight binding
Conditions: protein: recombinant; tags: N-terminal polyhistidine and DsRed monomer fusion (pET32a); chain copies: 2; label: CyDye5-dUTP incorporated in the synthesized complementary strand; 3' TTTTT single-stranded linker to array surface; dsDNA, one strand shown
Summary of the method: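 Transcription factors were each fused at the N-terminus to a polyhistidine tag plus DsRed and expressed in E. coli BL21-CodonPlus before Ni–NTA purification. Binding to a double-stranded custom Agilent array was carried out with 200 nM protein at 25 °C for 1 h in PBS, 2% BSA, salmon testes DNA and 50 µM zinc acetate. The binding signal is per-feature fluorescence intensity, in arbitrary units, on an Axon 4000B scanner.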

| Sequence | binding signal |
| --- | --- |
| AAAATAACCTCGAGCGAACACGATGACACGACGAGCGGCACGGAGTCACCTAGTGCAG | 3710 fluorescence intensity (a.u.) |
| CCCCTGACGCGGCGACGCATATCCACATCGCCTTCCGGCCCGGAGTCACCTAGTGCAG | 5850 fluorescence intensity (a.u.) |
| AGTATATTAGGGTGTGTTTGGTTCCACGTCAAAATTAGAACGGAGTCACCTAGTGCAG | 4840 fluorescence intensity (a.u.) |
| CTAATTAAACGACGCGATTCAAATAAAATTGGGAGTACATCGGAGTCACCTAGTGCAG | 30500 fluorescence intensity (a.u.) |
| AGCAAGCTCATCGACGTCGCCTCTGTCGACGTGTGCCTCCCGGAGTCACCTAGTGCAG | 5860 fluorescence intensity (a.u.) |
| GTAACTCAATATCTGTGGGTGACGTTAATACATACATATCCGGAGTCACCTAGTGCAG | 3450 fluorescence intensity (a.u.) |
| ATGGTTGACTGGCTGGTTCCCTGTGTCTGTCTCACCTTTGCGGAGTCACCTAGTGCAG | 3160 fluorescence intensity (a.u.) |
| CTTATCAGCCCCTATCTATTTACATGTCAGCCCTTGCATTCGGAGTCACCTAGTGCAG | 4080 fluorescence intensity (a.u.) |
| CATGGATTAAGCCCACCTGCGGCCGCCGAACAGTGGCGTCCGGAGTCACCTAGTGCAG | 3530 fluorescence intensity (a.u.) |
| GATGAATTGAAGTTAGTAGTCGGCTGTATTATTGAACTTGCGGAGTCACCTAGTGCAG | 3320 fluorescence intensity (a.u.) |
| GGCGAAAATGCGAAACGCATGTACGCATGTGTCACACGTGCGGAGTCACCTAGTGCAG | 5080 fluorescence intensity (a.u.) |
| TAAACATCTGATTAGCTAAAAGTGTTTAATTAGATTTCCACGGAGTCACCTAGTGCAG | 3480 fluorescence intensity (a.u.) |
| GTGCAAATGTACACAAAACCTCTTTCATCAAGCTACGTGGCGGAGTCACCTAGTGCAG | 4390 fluorescence intensity (a.u.) |
| CTGCCTCCTGTTCGCGCTCCACGCCACCACTGCCGACGAGCGGAGTCACCTAGTGCAG | 4300 fluorescence intensity (a.u.) |
| TCGCGAATCTGGATTCTGGAGAGACCGTGAGTCACCGACGCGGAGTCACCTAGTGCAG | 8020 fluorescence intensity (a.u.) |
| TAATCCCACCACGCACCGGAGCGAGAAGAAGAAGAACCCACGGAGTCACCTAGTGCAG | 15100 fluorescence intensity (a.u.) |
| ATTCCCCGAGGCCCGCGTGTCAGCGACACGGGAGCCGGAACGGAGTCACCTAGTGCAG | 3860 fluorescence intensity (a.u.) |
| TAGCCGATCCTCCACGTGTGCTCCTCTCCCCACTTGTCACCGGAGTCACCTAGTGCAG | 15800 fluorescence intensity (a.u.) |
| CTTCGAAGATACTCATAGGGGTAGGGTTTACGTGCGTGCGCGGAGTCACCTAGTGCAG | 3140 fluorescence intensity (a.u.) |
| CTTCTCCTGCATGGCAAGTCGCTGATCACAACTACGCATCCGGAGTCACCTAGTGCAG | 3610 fluorescence intensity (a.u.) |
| AGAAGGAGAGGAGAGAGGAGGTGGTGTACTGGTGCGTGTGCGGAGTCACCTAGTGCAG | 3540 fluorescence intensity (a.u.) |

Part of the list above, bar-delimited.
Sequence | binding signal
CTTATCAGCCCCTATCTATTTACATGTCAGCCCTTGCATTCGGAGTCACCTAGTGCAG | 4080 fluorescence intensity (a.u.)
CATGGATTAAGCCCACCTGCGGCCGCCGAACAGTGGCGTCCGGAGTCACCTAGTGCAG | 3530 fluorescence intensity (a.u.)
GATGAATTGAAGTTAGTAGTCGGCTGTATTATTGAACTTGCGGAGTCACCTAGTGCAG | 3320 fluorescence intensity (a.u.)
GGCGAAAATGCGAAACGCATGTACGCATGTGTCACACGTGCGGAGTCACCTAGTGCAG | 5080 fluorescence intensity (a.u.)
TAAACATCTGATTAGCTAAAAGTGTTTAATTAGATTTCCACGGAGTCACCTAGTGCAG | 3480 fluorescence intensity (a.u.)
GTGCAAATGTACACAAAACCTCTTTCATCAAGCTACGTGGCGGAGTCACCTAGTGCAG | 4390 fluorescence intensity (a.u.)
CTGCCTCCTGTTCGCGCTCCACGCCACCACTGCCGACGAGCGGAGTCACCTAGTGCAG | 4300 fluorescence intensity (a.u.)
TCGCGAATCTGGATTCTGGAGAGACCGTGAGTCACCGACGCGGAGTCACCTAGTGCAG | 8020 fluorescence intensity (a.u.)
TAATCCCACCACGCACCGGAGCGAGAAGAAGAAGAACCCACGGAGTCACCTAGTGCAG | 15100 fluorescence intensity (a.u.)
ATTCCCCGAGGCCCGCGTGTCAGCGACACGGGAGCCGGAACGGAGTCACCTAGTGCAG | 3860 fluorescence intensity (a.u.)
TAGCCGATCCTCCACGTGTGCTCCTCTCCCCACTTGTCACCGGAGTCACCTAGTGCAG | 15800 fluorescence intensity (a.u.)

Carrying on:

| Sequence | binding signal |
| --- | --- |
| ACACATCAATGTCGTTACCAGGTCACCATGTGCATCTACACGGAGTCACCTAGTGCAG | 5520 fluorescence intensity (a.u.) |
| ATTGATCTACGTGGTCCTGCTGATCTGTACTTTGGGTCTACGGAGTCACCTAGTGCAG | 9280 fluorescence intensity (a.u.) |
| ATTTGGTATGACTTGGCTTCAAACCAAGATGGTCCGGAGTCGGAGTCACCTAGTGCAG | 5390 fluorescence intensity (a.u.) |
| AGAAATAAAGCCACATATGTCCAACATTCTACCCATGGCGCGGAGTCACCTAGTGCAG | 3480 fluorescence intensity (a.u.) |
| AGCTCGTCAGGTCTCTCCACCTCAGGGAGCTCAAGGCCCTCGGAGTCACCTAGTGCAG | 3890 fluorescence intensity (a.u.) |
| ACGCTAGCACGTCATTACTGTTTCTCACCGATCACAAGGGCGGAGTCACCTAGTGCAG | 6420 fluorescence intensity (a.u.) |
| CGGCGTGGCACTGTGACGTGGCAACGGTTATGCGGTTATGCGGAGTCACCTAGTGCAG | 10600 fluorescence intensity (a.u.) |
| AGAGGTACTATAACCTAATCATTTCACTTGTGCCTGTTTTCGGAGTCACCTAGTGCAG | 7920 fluorescence intensity (a.u.) |
| CGGTCTTGCGCGAAAACCCCGTCGTCACCTACAACGAACTCGGAGTCACCTAGTGCAG | 3980 fluorescence intensity (a.u.) |
| TCACCGTGCCACGTGGCCGACGGCATTGCGCGCGCGGCAGCGGAGTCACCTAGTGCAG | 9860 fluorescence intensity (a.u.) |
| TAAAATTTCTGTCCATCGTGACGCACGCAGGTGATCTTCGCGGAGTCACCTAGTGCAG | 4910 fluorescence intensity (a.u.) |
| AAGGGGAAGGGTTGGTTCGGGCTGTGGGACAACAGCTCGGCGGAGTCACCTAGTGCAG | 4370 fluorescence intensity (a.u.) |
| AAAATACAGGTTAGACCCATGCCGACCAGAAGTCATCCAGCGGAGTCACCTAGTGCAG | 17600 fluorescence intensity (a.u.) |
| ACCTTTTCACACGGTGTTCGTCCACCGTGTGCAACCTTGTCGGAGTCACCTAGTGCAG | 4120 fluorescence intensity (a.u.) |
| TACTGTATGTTGGTAGCTTATTAGCGTGCATGACTGCATGCGGAGTCACCTAGTGCAG | 26700 fluorescence intensity (a.u.) |
| GCCGTCGTGCCCTCGCATGCAACGTGTTCGTCCGACGACACGGAGTCACCTAGTGCAG | 5560 fluorescence intensity (a.u.) |
| CAGTTTGTTGGGATGCTGACAGCACCCTCTTAGACTAGCACGGAGTCACCTAGTGCAG | 5070 ± 316 fluorescence intensity (a.u.) |
| GGATATGACAATTGACCATTCATGCCCCTTCATCTTATTACGGAGTCACCTAGTGCAG | 3540 fluorescence intensity (a.u.) |
| CTTATGGAGCTTTACGTTGTTCTAGTTACTTGAAGCTCCACGGAGTCACCTAGTGCAG | 5920 fluorescence intensity (a.u.) |
| ACCTCTTAATGAGAATGTGACTCATCCTAATACAACCAACCGGAGTCACCTAGTGCAG | 9830 fluorescence intensity (a.u.) |
| GCAACGTATAAGAGCGAGTACAATAGCATGCTACAAGTTACGGAGTCACCTAGTGCAG | 31900 fluorescence intensity (a.u.) |
